Test results taken from US20230146870A1, “METHOD TO QUANTIFY AFFINITY AND SELECTIVITY OF SMALL MOLECULES FOR PROTEINS IN LIVING CELLS” (Ohio State Innovation Foundation, priority 2021, published 2023).

How the values were obtained:
[1] = tested on: microtubules in living HeLa cells; experiment: Saturation binding of PB-GABA-Taxol in living HeLa cells by flow cytometry; conditions: 1.5 μM probe
Experimental: (§1) To quantify the affinity of PB-GABA-Taxol for microtubules in living cells (cellular Kd), we developed the saturation binding method shown in FIG. 3. In this assay the cellular Kd was measured by varying the concentration of the fluorescent probe added to cells at equilibrium as established by kinetic assays of probe uptake. Total binding of this probe to specific and non-specific sites in cells in the presence of the efflux inhibitor verapamil was determined by flow cytometry. Non-specific binding was quantified separately by addition of excess paclitaxel with the probe under the same conditions. Subtraction of the linear non-specific binding contribution from the total binding curve was used analyze specific binding of the probe to tubulin of microtubules. Measurement of this cellular dissociation constant under equilibrium conditions further allowed conversion of the half-maximal inhibitory concentration (IC50) of unlabeled compounds into cellular inhibitory constants using an adaptation of the Cheng-Prusoff equation^44 for competitive modulators (Ki) or the allosteric equation^45 for non-competitive modulators (Kb and the cooperativity factor α) as implemented by GraphPad Prism.
(§2) For saturation binding assays, HeLa cells were incubated with PB-GABA-Taxol at 37° C. for 180 min in the presence of verapamil (100 μM).
(§3) OptiMEM medium containing 4% FBS was prepared as 2× stock solutions of different concentrations of PB-GABA-Taxol by serial dilution (final [DMSO]=1.2%). Aliquots of 100 μL were added to a non-treated 96-well plate in two sets in triplicate (one set for total binding and one set for non-specific binding). HeLa cells were washed twice with PBS and suspended by trypsinization with 0.25% Trypsin-EDTA at 37° C. for 5 minutes. […] The percentage of non-specific binding was determined as non-specific binding divided by total binding. The signal window (SW) was calculated as previously described^2: SW=[(mean top (maximum) signal−mean bottom (minimum) signal)−(3)*(SD top signal+SD bottom signal)]/(SD top signal), where SD=standard deviation.

[2] = tested on: T1, microtubules in living HeLa cells; experiment: as above; conditions: HeLa cell volume 4.5 pL
T1 construct: rows headed: PB-GABA-Taxol molecules/cell at saturation; other: calibration beads, flow cytometry; other: HeLa cell volume 4.5; cellular Kd of PB-GABA-Taxol for microtubules; other: HeLa cells, 4% FBS, 37° C., verapamil 100 μM, 3 h; other: 10% FBS vs
Experimental: as §1, §2, §3

HeLa cells = experiment: Time to equilibrium / cellular uptake of PB-GABA-Taxol by flow cytometry

In the case of CC(=O)O[C@H]1C(=O)[C@]2(C)[C@@H](OC(=O)CCCNC(=O)c3cc4cc(F)c(O)c(F)c4oc3=O)C[C@H]3OC[C@@]3(OC(C)=O)[C@H]2[C@H](OC(=O)c2ccccc2)[C@]2(O)C[C@H](OC(=O)[C@H](O)[C@@H](NC(=O)c3ccccc3)c3ccccc3)C(C)=C1C2(C)C [PB-GABA-Taxol], the non-specific binding ([1]; 4% FBS) is reported as 6%, the non-specific binding ([1]; 10% FBS) is reported as 8% and the “average concentration of saturable binding sites occupied by PB-GABA-Taxol in a HeLa cell” value [2] is reported as 22 ± 4 µM. The “enhancement of cellular fluorescence by verapamil vs absence of verapamil” value (“enhancement … vs absence of verapamil” for short) (HeLa cells; verapamil 10 μM) was 9 fold, the “enhancement … vs absence of verapamil” value (HeLa cells; verapamil 25 μM) was 17 fold and the “enhancement … vs absence of verapamil” value (HeLa cells; verapamil 100 μM) was 32 fold.
